Measured values: paper doi:10.1101/2021.03.12.434960
These are yes or no findings as the source states them, for the method shown. Some binding calls cover weakened binding; strength is not graded here.

Target: T1, full-length human KIF5A, C-terminal mScarlet-StrepII (human), Q12840
T1 chain: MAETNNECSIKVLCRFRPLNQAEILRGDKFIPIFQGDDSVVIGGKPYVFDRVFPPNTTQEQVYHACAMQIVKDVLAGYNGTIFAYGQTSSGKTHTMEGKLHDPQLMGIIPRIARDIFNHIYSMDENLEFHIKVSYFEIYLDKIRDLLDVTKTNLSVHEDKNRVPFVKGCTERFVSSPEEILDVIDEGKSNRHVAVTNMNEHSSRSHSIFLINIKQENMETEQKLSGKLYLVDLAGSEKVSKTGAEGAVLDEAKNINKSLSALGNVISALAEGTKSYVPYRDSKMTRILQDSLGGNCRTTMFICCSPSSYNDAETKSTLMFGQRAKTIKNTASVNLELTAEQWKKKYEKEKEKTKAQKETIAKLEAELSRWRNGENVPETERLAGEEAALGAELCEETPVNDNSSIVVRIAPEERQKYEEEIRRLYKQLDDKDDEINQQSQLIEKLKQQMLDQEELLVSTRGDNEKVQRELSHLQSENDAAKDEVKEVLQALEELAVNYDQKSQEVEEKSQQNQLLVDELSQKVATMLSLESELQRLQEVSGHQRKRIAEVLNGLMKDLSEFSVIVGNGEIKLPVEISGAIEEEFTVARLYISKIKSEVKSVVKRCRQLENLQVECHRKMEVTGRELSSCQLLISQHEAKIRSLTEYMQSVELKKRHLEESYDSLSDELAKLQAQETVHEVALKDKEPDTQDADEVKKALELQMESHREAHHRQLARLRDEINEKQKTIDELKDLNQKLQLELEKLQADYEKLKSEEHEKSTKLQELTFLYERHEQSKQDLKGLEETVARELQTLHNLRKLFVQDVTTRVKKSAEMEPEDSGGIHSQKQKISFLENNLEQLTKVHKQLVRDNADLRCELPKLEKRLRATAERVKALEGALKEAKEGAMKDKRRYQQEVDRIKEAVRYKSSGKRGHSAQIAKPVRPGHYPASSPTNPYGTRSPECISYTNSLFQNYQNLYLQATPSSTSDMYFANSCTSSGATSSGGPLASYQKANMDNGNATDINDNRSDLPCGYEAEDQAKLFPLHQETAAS
Test: SEC-MALS
Details: remark: other sources report otherwise

B1: full-length human KIF5A, C-terminal mScarlet-StrepII, Q12840 1-1032 (natural protein)
chain: T1 chain
binding: binds
